Experimental data published in the supplement of paper PMC11006884.
The targets with a hit were mostly taken out for another list; the other results follow. The data scatter; read single values as rough. The list shows a part of the results, in another mix than the full data.

The chains behind the UniProt entries cited, without tags or fusion partners. Where a name states a change or a piece, a line headed by the entry shows the natural chain unless it says otherwise.
UniProt P30044: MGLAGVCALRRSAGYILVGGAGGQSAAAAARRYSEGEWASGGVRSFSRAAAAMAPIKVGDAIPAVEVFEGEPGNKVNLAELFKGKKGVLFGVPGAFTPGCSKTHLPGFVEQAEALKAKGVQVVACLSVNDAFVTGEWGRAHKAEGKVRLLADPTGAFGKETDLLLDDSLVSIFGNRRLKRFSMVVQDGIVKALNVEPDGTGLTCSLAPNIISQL
UniProt P21333, whole entry, looked up: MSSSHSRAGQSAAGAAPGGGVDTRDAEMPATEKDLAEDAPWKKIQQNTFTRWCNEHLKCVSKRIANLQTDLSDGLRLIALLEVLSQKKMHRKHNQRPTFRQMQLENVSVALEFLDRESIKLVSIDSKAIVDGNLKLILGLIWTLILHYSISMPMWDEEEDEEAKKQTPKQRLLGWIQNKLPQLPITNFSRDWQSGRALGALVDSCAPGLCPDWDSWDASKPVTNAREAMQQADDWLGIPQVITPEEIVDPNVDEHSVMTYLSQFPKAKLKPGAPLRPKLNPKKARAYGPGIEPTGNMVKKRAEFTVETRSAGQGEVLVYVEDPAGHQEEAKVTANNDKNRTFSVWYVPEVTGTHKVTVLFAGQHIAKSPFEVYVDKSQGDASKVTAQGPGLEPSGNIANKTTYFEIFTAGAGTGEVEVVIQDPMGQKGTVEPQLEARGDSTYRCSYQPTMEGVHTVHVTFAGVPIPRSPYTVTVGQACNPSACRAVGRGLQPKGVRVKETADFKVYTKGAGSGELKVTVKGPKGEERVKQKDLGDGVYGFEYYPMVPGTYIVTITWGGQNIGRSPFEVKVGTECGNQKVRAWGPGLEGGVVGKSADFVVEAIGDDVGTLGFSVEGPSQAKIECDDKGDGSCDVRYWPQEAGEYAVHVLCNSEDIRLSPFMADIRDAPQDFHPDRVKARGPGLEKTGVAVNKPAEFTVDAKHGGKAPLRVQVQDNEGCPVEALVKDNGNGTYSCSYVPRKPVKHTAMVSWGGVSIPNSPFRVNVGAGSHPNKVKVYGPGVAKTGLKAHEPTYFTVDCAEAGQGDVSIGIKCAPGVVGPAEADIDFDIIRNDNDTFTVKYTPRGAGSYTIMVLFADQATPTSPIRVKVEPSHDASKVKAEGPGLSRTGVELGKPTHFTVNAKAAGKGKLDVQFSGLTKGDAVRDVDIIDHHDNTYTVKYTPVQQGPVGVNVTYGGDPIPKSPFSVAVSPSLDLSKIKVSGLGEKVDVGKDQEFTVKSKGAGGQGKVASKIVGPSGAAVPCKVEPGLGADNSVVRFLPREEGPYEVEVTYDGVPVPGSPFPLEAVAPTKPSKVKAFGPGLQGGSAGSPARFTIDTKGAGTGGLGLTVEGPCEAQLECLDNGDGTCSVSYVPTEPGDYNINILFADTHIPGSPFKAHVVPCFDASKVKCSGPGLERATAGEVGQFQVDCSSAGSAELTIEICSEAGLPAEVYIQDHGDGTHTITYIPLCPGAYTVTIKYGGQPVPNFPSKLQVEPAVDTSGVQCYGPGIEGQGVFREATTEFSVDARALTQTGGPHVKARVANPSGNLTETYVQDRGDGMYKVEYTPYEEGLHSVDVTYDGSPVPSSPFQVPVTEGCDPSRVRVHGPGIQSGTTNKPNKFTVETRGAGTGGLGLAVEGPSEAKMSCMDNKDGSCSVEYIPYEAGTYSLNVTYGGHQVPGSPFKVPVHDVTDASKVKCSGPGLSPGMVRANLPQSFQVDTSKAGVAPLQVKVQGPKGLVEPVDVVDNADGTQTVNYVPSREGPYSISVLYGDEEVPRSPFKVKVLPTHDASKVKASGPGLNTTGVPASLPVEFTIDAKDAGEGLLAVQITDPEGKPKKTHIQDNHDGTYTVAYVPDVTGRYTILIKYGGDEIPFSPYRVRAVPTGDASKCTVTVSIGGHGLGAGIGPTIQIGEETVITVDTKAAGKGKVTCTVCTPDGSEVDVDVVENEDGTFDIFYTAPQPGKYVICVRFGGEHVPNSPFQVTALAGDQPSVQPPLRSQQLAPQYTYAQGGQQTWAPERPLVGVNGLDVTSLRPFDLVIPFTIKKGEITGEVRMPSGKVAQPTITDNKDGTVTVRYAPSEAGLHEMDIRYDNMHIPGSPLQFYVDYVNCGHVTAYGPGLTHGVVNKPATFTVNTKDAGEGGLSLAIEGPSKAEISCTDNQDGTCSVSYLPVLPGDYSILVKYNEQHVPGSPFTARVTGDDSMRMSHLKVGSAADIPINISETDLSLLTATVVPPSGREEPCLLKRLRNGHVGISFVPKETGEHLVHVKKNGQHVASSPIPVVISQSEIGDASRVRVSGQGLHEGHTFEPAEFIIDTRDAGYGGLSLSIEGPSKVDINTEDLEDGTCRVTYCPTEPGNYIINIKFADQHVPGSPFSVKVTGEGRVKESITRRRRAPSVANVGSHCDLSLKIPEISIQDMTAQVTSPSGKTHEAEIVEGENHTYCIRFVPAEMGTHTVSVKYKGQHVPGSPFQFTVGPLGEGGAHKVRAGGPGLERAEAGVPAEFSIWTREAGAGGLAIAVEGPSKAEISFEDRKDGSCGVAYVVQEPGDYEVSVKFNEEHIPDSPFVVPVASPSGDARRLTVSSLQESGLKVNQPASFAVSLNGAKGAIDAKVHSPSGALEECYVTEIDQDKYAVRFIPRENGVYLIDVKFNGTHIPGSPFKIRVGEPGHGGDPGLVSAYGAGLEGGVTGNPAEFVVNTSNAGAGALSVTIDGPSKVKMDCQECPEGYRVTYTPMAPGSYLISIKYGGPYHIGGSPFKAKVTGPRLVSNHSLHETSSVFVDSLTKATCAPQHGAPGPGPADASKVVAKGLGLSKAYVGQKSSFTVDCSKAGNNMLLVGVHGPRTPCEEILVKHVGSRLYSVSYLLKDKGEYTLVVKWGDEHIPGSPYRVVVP
UniProt P20810: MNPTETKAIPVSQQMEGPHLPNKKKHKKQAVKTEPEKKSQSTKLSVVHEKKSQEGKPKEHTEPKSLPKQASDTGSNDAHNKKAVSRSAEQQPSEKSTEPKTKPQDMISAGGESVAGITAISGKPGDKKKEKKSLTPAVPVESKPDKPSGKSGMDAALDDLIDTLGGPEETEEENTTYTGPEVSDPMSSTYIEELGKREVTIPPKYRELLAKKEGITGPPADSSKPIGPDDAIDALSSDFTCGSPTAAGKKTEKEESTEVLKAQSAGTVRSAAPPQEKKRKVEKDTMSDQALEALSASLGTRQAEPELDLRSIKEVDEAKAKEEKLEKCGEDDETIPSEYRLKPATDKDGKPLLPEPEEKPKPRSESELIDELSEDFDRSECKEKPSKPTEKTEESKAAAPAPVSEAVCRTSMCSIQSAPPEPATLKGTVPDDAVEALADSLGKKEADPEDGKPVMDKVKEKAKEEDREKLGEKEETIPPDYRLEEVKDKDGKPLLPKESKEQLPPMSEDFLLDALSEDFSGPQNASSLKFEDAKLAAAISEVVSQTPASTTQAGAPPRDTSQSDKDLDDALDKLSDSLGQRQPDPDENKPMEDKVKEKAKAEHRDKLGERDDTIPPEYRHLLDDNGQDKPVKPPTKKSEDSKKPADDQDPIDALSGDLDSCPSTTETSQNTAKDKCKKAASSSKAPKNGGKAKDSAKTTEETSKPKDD
UniProt P23528, whole entry, looked up: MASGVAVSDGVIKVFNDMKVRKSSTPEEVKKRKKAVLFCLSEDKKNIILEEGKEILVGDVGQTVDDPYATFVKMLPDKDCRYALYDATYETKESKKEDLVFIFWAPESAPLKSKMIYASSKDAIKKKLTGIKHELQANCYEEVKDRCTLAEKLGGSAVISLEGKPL
UniProt P29218: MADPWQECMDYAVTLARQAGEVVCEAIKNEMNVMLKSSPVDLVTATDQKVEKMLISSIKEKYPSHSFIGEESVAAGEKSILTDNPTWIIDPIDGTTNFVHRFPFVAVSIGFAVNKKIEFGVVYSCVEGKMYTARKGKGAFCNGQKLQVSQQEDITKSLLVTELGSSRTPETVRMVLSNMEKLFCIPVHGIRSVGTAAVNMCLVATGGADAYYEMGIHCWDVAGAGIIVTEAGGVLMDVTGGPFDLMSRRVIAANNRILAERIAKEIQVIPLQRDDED
UniProt P29590: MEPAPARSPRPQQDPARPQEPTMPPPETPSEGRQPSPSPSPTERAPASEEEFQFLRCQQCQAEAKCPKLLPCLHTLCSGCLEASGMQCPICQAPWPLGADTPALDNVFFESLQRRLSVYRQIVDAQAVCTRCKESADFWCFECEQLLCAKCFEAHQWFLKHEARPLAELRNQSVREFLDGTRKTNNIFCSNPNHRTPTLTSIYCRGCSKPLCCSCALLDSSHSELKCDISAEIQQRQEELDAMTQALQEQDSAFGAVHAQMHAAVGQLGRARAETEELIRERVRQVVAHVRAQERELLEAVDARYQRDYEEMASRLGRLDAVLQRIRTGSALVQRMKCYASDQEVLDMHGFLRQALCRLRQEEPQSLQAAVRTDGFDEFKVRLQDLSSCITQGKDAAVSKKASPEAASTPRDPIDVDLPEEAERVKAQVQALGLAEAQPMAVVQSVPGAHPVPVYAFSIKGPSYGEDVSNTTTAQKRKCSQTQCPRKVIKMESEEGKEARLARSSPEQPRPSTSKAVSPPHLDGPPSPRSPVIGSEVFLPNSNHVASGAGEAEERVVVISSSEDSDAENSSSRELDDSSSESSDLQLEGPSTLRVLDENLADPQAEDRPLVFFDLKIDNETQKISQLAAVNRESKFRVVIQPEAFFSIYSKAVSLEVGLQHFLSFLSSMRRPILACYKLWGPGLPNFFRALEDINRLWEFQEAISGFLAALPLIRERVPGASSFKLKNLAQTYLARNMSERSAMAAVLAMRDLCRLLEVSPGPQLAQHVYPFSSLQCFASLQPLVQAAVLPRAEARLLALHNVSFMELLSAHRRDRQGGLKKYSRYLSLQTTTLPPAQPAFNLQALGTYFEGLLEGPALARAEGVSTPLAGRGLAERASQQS
UniProt P23258, whole entry, looked up: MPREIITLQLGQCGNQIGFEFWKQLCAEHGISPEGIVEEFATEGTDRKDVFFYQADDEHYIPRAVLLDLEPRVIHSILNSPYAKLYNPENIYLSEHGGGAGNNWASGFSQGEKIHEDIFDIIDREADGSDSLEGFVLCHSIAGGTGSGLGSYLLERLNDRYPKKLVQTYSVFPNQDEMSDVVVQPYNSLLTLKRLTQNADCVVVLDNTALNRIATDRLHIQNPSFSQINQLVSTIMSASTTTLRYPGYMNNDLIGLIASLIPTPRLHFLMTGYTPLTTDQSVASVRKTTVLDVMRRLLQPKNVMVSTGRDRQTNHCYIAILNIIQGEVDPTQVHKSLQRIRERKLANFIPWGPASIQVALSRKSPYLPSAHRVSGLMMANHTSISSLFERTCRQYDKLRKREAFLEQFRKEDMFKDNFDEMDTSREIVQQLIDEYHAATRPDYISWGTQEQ
UniProt P24534: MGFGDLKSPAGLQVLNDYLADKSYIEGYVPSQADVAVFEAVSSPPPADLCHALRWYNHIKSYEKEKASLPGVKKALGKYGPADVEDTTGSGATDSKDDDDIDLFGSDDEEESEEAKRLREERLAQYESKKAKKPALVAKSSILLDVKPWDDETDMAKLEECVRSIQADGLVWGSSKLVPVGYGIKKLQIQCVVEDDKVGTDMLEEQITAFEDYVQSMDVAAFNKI
UniProt P22102: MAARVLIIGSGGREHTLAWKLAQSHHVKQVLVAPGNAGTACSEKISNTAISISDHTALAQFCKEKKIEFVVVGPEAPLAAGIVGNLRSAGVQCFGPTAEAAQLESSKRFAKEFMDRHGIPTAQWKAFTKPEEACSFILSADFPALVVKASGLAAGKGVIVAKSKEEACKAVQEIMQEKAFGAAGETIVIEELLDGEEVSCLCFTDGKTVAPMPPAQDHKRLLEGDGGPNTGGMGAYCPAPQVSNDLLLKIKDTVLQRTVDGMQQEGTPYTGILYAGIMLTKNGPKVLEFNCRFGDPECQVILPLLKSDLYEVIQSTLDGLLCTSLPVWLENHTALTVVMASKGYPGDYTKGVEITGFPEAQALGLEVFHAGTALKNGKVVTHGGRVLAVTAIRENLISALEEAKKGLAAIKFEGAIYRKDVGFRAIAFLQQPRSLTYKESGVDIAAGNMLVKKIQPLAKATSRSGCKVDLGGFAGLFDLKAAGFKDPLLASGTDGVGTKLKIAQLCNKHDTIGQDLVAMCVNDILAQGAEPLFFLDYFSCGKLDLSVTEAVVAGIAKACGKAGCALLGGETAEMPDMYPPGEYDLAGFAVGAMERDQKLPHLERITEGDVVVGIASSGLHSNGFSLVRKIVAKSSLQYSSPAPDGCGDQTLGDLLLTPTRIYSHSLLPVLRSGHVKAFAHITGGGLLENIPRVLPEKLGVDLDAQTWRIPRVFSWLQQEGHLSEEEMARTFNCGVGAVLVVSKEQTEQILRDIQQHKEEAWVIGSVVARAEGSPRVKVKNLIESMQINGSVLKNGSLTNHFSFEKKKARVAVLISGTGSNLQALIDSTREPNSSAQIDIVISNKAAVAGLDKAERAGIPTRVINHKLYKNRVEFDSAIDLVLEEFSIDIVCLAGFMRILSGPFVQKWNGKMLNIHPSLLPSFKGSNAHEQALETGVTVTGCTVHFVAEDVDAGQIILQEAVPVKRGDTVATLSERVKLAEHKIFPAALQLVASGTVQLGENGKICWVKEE

compound: COC(=O)/C=C/c1ccccc1 [methyl cinnamate]; assay: log2 ratio of iodoacetamide-alkyne labeling of the cysteine site, DMSO over compound (competition); higher = stronger covalent engagement of the cysteine by the compound, active = 1 or more; settings: 500 µM; treatment time 1 h; system: HEK293T cell lysate
Summary of the method: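 HEK293T lysate (2 mg/mL) was incubated with electrophile (500 µM) or vehicle for 1 h at ambient temperature and then with iodoacetamide alkyne for 1 h. Labelled proteins were clicked to sCIP-TMT reagents, pooled, digested, enriched on streptavidin and measured by Orbitrap Eclipse LC-MS/MS with FAIMS, with FragPipe quantification. The per-cysteine log2 competition ratio is mean control-channel reporter intensity over mean compound-channel reporter intensity. Across three replicates with duplicate channels, cysteines quantified in only one replicate were excluded.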

log2 ratio of iodoacetamide-alkyne labeling, inactive:
YWHAQ C94 (UniProt P27348) -0.0506
TCP1 C357 (UniProt P17987) 0.398
AHCY C421 (UniProt P23526) 0.042
PRDX5 C100 (UniProt P30044) 0.177
EIF2S2 C226 (UniProt P20042) 0.0103
PGAM1 C153 (UniProt P18669) 0.101
FLNA C1453 (UniProt P21333) 0.193
CAD C183 (UniProt P27708) 0.299
PLCG1 C976 (UniProt P19174) 0.433
SON C92 (UniProt P18583) 0.0119
DDX5 C89 (UniProt P17844) -0.21
TCP1 C76 (UniProt P17987) 0.0569
RPL10 C195 (UniProt P27635) 0.384
CAST C381 (UniProt P20810) 0.449
NDUFS1 C128 (UniProt P28331) -0.0316
FLNA C623 (UniProt P21333) 0.0546
CFL1 C39 (UniProt P23528) -0.189
PFKL C170 (UniProt P17858) -0.00554
PTBP1 C250 (UniProt P26599) 0.025
FLNA C2601 (UniProt P21333) 0.187
IMPA1 C24 (UniProt P29218) 0.116
FLNA C2293 (UniProt P21333) 0.27
SCP2 C94 (UniProt P22307) -0.0672
CAST C241 (UniProt P20810) 0.274
LAP3 C376 (UniProt P28838) -0.0684
CAD C1889 (UniProt P27708) 0.166
PML C60 (UniProt P29590) 0.173
TUBG1 C138 (UniProt P23258) 0.158
ATP6V1B2 C112 (UniProt P21281) 0.0501
MAP4 C1008 (UniProt P27816) 0.489
ATP6V1B2 C162 (UniProt P21281) 0.12
EEF1B2 C50 (UniProt P24534) 0.00502
UniProt P25705_C294 -0.0108
DTYMK C163 (UniProt P23919) 0.128
GLDC C612 (UniProt P23378) 0.0276
DNAJB1 C267 (UniProt P25685) 0.0806
GART C168 (UniProt P22102) 0.459

2 entries drawn at random from the list so far:
log2 ratio of iodoacetamide-alkyne labeling, inactive:
MAP4 C1008 (UniProt P27816) 0.489
CAST C241 (UniProt P20810) 0.274
